Results published in the supplement of paper PMC10849652.
This is one part of the list.

By UniProt entry, the sequences of proteins in these tests, tags left out. Where a name states a change or a piece, a line headed by the entry shows the natural chain unless it says otherwise.
UniProt P78356: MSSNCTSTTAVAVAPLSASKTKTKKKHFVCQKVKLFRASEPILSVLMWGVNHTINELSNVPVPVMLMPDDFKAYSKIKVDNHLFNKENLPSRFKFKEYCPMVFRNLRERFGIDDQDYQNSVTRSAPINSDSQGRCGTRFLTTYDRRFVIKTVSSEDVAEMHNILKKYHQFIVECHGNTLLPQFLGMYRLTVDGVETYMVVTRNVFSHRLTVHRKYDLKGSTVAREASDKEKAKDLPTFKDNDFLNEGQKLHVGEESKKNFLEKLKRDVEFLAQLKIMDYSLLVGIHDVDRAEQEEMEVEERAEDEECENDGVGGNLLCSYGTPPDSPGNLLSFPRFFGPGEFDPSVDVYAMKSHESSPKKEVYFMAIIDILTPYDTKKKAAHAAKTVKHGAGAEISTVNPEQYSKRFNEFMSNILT
UniProt Q96BD5: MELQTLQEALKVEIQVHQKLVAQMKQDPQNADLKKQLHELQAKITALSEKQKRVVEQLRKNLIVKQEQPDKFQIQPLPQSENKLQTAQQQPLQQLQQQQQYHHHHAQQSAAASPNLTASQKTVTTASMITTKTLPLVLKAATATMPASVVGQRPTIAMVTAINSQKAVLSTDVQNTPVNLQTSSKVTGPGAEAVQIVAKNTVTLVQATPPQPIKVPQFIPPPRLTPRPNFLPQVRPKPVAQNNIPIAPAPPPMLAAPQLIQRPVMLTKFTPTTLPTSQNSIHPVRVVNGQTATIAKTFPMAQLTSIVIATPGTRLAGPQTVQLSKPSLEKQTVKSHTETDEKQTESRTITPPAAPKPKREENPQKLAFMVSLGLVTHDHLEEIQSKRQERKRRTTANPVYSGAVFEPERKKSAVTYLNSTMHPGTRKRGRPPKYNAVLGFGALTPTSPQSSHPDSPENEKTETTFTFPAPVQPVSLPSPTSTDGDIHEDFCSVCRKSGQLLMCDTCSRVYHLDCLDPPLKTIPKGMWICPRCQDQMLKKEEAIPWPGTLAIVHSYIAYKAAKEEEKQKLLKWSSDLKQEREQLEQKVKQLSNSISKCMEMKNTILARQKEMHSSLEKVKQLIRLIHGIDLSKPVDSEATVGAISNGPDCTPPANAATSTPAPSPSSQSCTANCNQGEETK
UniProt Q6P5Z2: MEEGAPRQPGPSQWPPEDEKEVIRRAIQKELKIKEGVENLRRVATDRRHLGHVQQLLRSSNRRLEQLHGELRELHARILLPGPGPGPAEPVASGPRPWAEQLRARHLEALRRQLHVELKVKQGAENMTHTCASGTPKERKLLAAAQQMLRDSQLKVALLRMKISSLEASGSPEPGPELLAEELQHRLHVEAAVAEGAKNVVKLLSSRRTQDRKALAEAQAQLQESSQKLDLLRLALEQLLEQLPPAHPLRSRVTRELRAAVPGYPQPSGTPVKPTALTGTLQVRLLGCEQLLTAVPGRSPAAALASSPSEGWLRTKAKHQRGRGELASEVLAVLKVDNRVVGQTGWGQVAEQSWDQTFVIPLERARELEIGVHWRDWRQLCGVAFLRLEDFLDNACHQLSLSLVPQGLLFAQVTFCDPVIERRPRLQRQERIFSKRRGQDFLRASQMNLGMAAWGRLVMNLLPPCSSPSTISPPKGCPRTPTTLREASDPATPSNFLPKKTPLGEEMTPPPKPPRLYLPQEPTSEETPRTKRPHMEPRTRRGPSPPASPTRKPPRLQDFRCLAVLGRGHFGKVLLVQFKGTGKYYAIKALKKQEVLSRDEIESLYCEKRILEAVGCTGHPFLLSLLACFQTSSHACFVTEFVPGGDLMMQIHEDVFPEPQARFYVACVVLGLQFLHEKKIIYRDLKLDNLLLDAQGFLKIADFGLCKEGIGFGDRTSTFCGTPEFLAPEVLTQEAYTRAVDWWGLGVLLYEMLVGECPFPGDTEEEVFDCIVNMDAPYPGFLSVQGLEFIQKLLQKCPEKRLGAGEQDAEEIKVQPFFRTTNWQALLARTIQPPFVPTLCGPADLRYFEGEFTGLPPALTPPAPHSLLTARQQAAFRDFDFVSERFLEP
UniProt Q92643: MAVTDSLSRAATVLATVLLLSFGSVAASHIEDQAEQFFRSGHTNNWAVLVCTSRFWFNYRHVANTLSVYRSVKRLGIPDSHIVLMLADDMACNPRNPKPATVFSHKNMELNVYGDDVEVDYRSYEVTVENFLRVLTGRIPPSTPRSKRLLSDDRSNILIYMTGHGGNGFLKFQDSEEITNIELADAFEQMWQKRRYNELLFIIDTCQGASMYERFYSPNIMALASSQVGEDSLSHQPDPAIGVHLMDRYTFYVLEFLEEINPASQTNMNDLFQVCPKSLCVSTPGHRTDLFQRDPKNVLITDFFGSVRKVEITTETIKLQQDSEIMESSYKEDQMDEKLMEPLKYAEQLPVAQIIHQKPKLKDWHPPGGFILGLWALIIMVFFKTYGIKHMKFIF
UniProt P48739: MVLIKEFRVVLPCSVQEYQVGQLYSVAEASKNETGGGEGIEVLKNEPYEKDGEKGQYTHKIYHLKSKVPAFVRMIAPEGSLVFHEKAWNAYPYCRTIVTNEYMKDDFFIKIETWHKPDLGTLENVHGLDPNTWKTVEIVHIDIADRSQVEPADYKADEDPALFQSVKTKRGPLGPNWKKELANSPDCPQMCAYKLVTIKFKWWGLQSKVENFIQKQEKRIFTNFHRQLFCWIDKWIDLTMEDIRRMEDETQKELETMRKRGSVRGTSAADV
UniProt Q86T03: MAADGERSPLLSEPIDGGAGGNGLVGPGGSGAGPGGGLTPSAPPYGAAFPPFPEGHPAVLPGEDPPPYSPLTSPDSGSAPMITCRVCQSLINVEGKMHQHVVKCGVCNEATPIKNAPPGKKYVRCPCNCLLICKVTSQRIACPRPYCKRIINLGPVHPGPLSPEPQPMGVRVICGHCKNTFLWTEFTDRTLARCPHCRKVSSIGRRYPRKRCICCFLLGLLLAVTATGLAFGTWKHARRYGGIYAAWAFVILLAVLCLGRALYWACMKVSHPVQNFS
UniProt Q9GZP4: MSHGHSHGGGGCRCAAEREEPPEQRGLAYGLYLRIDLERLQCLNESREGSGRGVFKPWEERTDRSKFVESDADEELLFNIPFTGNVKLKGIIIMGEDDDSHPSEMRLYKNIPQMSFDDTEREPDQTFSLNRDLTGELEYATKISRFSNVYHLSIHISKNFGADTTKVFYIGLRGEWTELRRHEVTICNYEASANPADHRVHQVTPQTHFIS
UniProt Q00722, whole entry, looked up: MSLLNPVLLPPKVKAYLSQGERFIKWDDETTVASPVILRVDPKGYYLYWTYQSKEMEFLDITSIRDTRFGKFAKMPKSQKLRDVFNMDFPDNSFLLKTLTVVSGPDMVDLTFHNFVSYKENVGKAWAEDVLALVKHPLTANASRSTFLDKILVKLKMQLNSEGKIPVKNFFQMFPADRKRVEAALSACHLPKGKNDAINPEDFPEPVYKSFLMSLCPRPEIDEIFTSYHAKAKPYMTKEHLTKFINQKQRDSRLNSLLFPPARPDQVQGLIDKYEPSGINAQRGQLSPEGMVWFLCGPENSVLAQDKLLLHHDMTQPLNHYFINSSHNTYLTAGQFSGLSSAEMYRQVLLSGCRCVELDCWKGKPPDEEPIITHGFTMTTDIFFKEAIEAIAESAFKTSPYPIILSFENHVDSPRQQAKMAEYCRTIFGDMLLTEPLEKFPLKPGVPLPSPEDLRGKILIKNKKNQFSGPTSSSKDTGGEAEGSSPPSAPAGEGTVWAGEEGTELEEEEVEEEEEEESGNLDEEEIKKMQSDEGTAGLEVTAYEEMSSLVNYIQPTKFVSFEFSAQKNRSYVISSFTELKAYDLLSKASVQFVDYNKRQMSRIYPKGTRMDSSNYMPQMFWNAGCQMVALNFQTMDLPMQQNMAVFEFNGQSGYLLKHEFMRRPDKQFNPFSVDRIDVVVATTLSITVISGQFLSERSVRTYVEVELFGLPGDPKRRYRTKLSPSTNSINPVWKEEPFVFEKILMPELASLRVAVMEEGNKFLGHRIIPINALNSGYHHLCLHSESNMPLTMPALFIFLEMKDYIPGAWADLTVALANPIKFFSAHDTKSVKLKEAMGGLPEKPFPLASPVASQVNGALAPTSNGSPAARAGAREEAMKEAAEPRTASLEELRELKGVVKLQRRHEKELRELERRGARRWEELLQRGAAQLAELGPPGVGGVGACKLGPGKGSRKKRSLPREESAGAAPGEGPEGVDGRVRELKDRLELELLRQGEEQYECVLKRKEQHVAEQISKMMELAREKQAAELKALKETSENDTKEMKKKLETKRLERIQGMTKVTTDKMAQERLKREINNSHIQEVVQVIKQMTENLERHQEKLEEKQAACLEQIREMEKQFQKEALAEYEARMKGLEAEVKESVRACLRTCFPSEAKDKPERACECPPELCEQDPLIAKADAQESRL
UniProt Q8IV08: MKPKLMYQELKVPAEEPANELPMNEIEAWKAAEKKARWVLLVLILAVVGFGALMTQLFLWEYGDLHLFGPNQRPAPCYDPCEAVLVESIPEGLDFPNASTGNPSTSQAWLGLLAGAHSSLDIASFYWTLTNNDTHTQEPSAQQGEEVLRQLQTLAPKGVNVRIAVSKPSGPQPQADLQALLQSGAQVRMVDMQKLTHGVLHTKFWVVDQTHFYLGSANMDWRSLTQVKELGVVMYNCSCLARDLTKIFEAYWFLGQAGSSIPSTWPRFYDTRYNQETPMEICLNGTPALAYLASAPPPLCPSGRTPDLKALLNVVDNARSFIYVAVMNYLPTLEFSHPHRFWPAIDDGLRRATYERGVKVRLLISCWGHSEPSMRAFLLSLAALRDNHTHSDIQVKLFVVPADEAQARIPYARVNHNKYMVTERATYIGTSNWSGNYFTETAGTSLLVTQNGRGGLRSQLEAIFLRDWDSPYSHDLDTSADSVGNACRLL
UniProt Q9NWS0, whole entry, looked up: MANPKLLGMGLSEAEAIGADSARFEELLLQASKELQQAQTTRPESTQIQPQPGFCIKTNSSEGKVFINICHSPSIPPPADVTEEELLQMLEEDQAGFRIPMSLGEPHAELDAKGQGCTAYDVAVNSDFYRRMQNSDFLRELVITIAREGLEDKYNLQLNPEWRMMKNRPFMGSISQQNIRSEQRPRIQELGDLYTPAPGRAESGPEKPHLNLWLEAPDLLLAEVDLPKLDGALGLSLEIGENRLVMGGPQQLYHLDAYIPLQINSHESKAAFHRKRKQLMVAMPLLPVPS
UniProt Q9Y237, whole entry, looked up: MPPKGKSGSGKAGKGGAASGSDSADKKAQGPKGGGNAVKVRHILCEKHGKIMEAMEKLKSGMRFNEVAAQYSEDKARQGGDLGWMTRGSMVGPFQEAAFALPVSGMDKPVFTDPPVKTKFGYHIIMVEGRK
UniProt Q16512: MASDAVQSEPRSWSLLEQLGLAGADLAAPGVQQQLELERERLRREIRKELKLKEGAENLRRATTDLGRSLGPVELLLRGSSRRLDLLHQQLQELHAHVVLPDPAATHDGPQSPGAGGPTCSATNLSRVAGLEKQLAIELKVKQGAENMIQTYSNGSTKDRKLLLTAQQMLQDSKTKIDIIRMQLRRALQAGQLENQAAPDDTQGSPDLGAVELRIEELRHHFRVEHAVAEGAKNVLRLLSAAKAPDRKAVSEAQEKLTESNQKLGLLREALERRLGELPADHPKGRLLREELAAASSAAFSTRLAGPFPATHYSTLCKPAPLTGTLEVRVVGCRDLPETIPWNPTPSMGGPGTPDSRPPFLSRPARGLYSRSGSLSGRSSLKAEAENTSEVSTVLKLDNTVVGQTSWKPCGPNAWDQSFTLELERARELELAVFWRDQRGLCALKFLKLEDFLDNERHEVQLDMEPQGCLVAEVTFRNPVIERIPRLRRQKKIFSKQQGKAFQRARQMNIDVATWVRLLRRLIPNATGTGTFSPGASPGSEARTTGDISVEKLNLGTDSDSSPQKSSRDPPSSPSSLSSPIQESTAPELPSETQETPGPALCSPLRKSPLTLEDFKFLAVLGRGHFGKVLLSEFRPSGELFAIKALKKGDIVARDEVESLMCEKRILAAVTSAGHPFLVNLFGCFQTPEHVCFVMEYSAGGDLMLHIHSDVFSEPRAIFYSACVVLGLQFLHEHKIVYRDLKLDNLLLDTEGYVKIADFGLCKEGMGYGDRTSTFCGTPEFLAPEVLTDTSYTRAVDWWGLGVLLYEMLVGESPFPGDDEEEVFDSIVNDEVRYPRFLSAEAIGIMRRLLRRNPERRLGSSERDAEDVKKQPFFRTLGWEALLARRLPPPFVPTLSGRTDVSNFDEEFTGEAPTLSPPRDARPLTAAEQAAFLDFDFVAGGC
UniProt Q8IWS0: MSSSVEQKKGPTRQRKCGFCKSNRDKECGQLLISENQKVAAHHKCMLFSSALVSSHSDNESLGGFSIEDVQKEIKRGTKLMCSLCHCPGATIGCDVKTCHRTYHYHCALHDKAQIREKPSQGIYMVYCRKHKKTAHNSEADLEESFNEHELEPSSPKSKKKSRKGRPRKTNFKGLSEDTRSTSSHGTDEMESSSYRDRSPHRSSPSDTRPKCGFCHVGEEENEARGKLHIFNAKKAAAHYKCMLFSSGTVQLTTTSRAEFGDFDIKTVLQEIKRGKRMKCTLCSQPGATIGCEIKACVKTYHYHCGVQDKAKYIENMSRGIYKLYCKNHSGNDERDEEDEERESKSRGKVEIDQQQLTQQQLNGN

How the values were obtained:
Assay in all cases: log2 fold change, soluble protein after heating vs DMSO (PISA); higher = thermal stabilisation; K562 lysate, 10 uM; active = over 0.2 and 3.5 SD of the protein, either way, in both replicates (recomputed)
[1] = compound: C1=CC=C(C=C1)[C@H](COC2=CC3=C(C=C2)NC(=O)N3)NC(=O)C4=CC=CN(C4=O)CC5=CC(=C(C=C5)F)F
Outline: (§1)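 Quantification was by TMTpro 16plex LC-MS/MS with equalised channel sums, applied to the supernatant after 21,000xg for 90 min. Samples were crude K562 extract at 1 mg/mL protein in PBS pH 7.4 with 1 mM MgCl2, treated with 10 μM compound for 30 min, heated for 3 min across 48°C-58°C, pooled and brought to 0.5% NP-40 at 4°C. Values are log-two fold changes in thermal stability relative to solvent controls, from duplicates.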

[2] = compound: CC1=C(SC2=C1C(=N[C@H](C3=NN=C(N32)C)CC(=O)N)C4=CC=C(C=C4)Cl)C
Outline: as §1

[3] = compound: CC1=C2C(=CC=C1)N=C(N(C2=O)C3=CC=CC=C3C)CN4C=NC5=C(N=CN=C54)N
Outline: as §1

[4] = compound: Cc1sc2c(c1C)C(c1ccc(Cl)cc1)=N[C@@H](CC(=O)OC(C)(C)C)c1nnc(C)n1-2
Outline: as §1

[5] = compound: c1ccc([C@@H]2C[C@H]2NC2CCNCC2)cc1
Outline: as §1

Measured: log2 fold change

PHACTR4 isoform 2 (UniProt Q8IZ21)
inactive: [1] 0.03 | [2] 0 | [3] 0.014 | [4] 0.028 | [5] 0.264

PIK3CD (UniProt O00329)
active: [3] 0.443
inactive: [1] -0.053 | [2] 0.075 | [4] -0.027 | [5] 0.043

PIK3CG (UniProt P48736)
inactive: [1] -0.076 | [2] -0.065 | [3] 0.109 | [4] -0.047 | [5] -0.105

PIP4K2B (UniProt P78356)
inactive: [1] -0.063 | [2] -0.078 | [3] -0.014 | [4] 0.036 | [5] -0.108

PLCG1 isoform 2 (UniProt P19174)
inactive: [1] 0.051 | [2] 0.027 | [3] -0.002 | [4] -0.054 | [5] 0.033

PHF21A isoform 3 (UniProt Q96BD5)
inactive: [1] -0.054 | [2] -0.033 | [3] 0.005 | [4] 0.073 | [5] 0.051

PHB (UniProt P35232)
inactive: [1] -0.126 | [2] -0.045 | [3] 0.002 | [4] 0.013 | [5] -0.006

PKN3 (UniProt Q6P5Z2)
inactive: [1] -0.198 | [2] 0.086 | [3] 0.022 | [4] 0.005 | [5] 0.002

PINX1 (UniProt Q96BK5)
inactive: [1] 0.148 | [2] -0.001 | [3] -0.184 | [4] 0.109 | [5] -0.068

PHOSPHO2 (UniProt Q8TCD6)
inactive: [1] -0.029 | [2] 0.02 | [3] 0.046 | [4] -0.053 | [5] 0.061

PHF5A (UniProt Q7RTV0)
inactive: [1] 0.014 | [2] -0.015 | [3] -0.045 | [4] 0.046 | [5] -0.078

PIGA (UniProt P37287)
inactive: [1] -0.077 | [2] 0.027 | [3] -0.021 | [4] -0.019 | [5] -0.044

PIGK (UniProt Q92643)
inactive: [1] -0.019 | [2] -0.023 | [3] 0.014 | [4] -0.041 | [5] -0.037

PLCL1 (UniProt Q15111)
inactive: [1] -0.011 | [2] -0.004 | [3] 0.029 | [4] -0.062 | [5] 0.065

PIK3C3 (UniProt Q8NEB9)
inactive: [1] -0.041 | [2] -0.032 | [3] -0.036 | [4] -0.014 | [5] -0.114

PKM (UniProt P14618)
inactive: [1] 0.008 | [2] 0.014 | [3] -0.001 | [4] -0.009 | [5] -0.037

PHKG2 (UniProt P15735)
inactive: [1] 0.039 | [2] -0.038 | [3] -0.037 | [4] -0.002 | [5] -0.022

PLEKHA5 isoform 6 (UniProt Q9HAU0)
inactive: [1] 0 | [2] -0.112 | [3] -0.06 | [4] -0.013 | [5] 0.045

PITPNB isoform 3 (UniProt P48739)
inactive: [1] -0.006 | [2] 0.02 | [3] 0.012 | [4] 0.04 | [5] 0.008

Copied from above (2 entries):
PIK3CG (UniProt P48736)
inactive: [1] -0.076 | [2] -0.065 | [3] 0.109 | [4] -0.047 | [5] -0.105

PIP4K2B (UniProt P78356)
inactive: [1] -0.063 | [2] -0.078 | [3] -0.014 | [4] 0.036 | [5] -0.108

Additional results.

PIP4P1 isoform 2 (UniProt Q86T03)
inactive: [1] 0.003 | [2] 0.072 | [3] 0 | [4] -0.055 | [5] -0.081

PHAX (UniProt Q9H814)
inactive: [1] 0.026 | [2] 0.014 | [3] -0.014 | [4] -0.027 | [5] 0

PHF3 (UniProt Q92576)
inactive: [1] 0.017 | [2] 0.007 | [3] 0.06 | [4] -0.05 | [5] -0.058

PITHD1 (UniProt Q9GZP4)
inactive: [1] 0.066 | [2] -0.068 | [3] 0.023 | [4] -0.037 | [5] -0.014

PKP3 isoform 2 (UniProt Q9Y446)
inactive: [1] -0.049 | [2] 0.014 | [3] 0.002 | [4] 0.062 | [5] -0.004

PLA2G15 (UniProt Q8NCC3)
inactive: [1] -0.005 | [2] 0.009 | [3] 0.021 | [4] -0.002 | [5] -0.022

PLCG2 (UniProt P16885)
inactive: [1] -0.024 | [2] 0.056 | [3] 0.038 | [5] 0.234

PIK3R4 (UniProt Q99570)
inactive: [1] -0.035 | [2] -0.014 | [3] 0.013 | [4] -0.001 | [5] -0.018

PGRMC2 isoform 2 (UniProt O15173)
inactive: [1] 0.038 | [2] 0.037 | [3] 0.007 | [4] -0.024 | [5] -0.008

PGS1 (UniProt Q32NB8)
inactive: [1] -0.08 | [2] 0.037 | [3] -0.077 | [4] 0.057 | [5] 0.022

PI4K2A (UniProt Q9BTU6)
inactive: [1] 0.028 | [2] 0.056 | [3] -0.007 | [4] -0.002 | [5] 0.001

PLCB2 (UniProt Q00722)
inactive: [1] -0.083 | [2] -0.13 | [3] -0.071 | [4] 0.106 | [5] 0.017

PLD3 (UniProt Q8IV08)
inactive: [1] 0.004 | [2] 0.007 | [3] 0.012 | [4] -0.011 | [5] -0.024

PHF23 (UniProt Q9BUL5)
inactive: [1] 0.01 | [2] 0 | [3] -0.013 | [4] -0.003 | [5] -0.015

PHF19 isoform 2 (UniProt Q5T6S3)
inactive: [1] -0.201 | [2] -0.102 | [3] -0.16 | [5] 0.054

PIH1D1 (UniProt Q9NWS0)
inactive: [1] 0.009 | [2] -0.023 | [3] -0.012 | [4] 0.008 | [5] 0.01

PGLS (UniProt O95336)
inactive: [1] -0.063 | [2] -0.06 | [3] 0.094 | [4] -0.04 | [5] 0.095

PHKA2 (UniProt P46019)
inactive: [1] -0.111 | [2] 0.028 | [3] 0.052 | [4] 0.021 | [5] 0.038

PIGQ (UniProt Q9BRB3)
inactive: [1] -0.013 | [2] -0.207 | [3] 0.026 | [5] -0.132

PI4KA (UniProt P42356)
inactive: [1] -0.08 | [2] -0.012 | [3] 0.057 | [4] -0.019 | [5] -0.018

PIN4 isoform 2 (UniProt Q9Y237)
inactive: [1] 0.003 | [2] 0.001 | [3] 0.014 | [4] -0.048 | [5] -0.029

Quoted at random: three entries already listed
PIH1D1 (UniProt Q9NWS0)
inactive: [1] 0.009 | [2] -0.023 | [3] -0.012 | [4] 0.008 | [5] 0.01

PI4KA (UniProt P42356)
inactive: [1] -0.08 | [2] -0.012 | [3] 0.057 | [4] -0.019 | [5] -0.018

PIGQ (UniProt Q9BRB3)
inactive: [1] -0.013 | [2] -0.207 | [3] 0.026 | [5] -0.132

Next part.

PIR (UniProt O00625)
inactive: [1] -0.013 | [2] 0.017 | [3] 0.026 | [4] 0.009 | [5] 0.06

PISD (UniProt Q9UG56)
inactive: [1] -0.013 | [2] 0.1 | [3] 0.021 | [4] 0.037 | [5] 0.061

PIK3CB (UniProt P42338)
active: [3] 0.518
inactive: [1] -0.066 | [2] -0.054 | [4] -0.049 | [5] -0.033

PIGU (UniProt Q9H490)
inactive: [1] -0.099 | [2] -0.016 | [3] 0.131 | [4] 0.128 | [5] 0.025

PLEC isoform 3 (UniProt Q15149)
inactive: [1] -0.08 | [2] 0.054 | [3] 0.123 | [5] 0.032

PIP4P2 (UniProt Q8N4L2)
inactive: [1] 0.03 | [2] -0.068 | [3] -0.012 | [4] 0.012 | [5] -0.106

PGM2L1 (UniProt Q6PCE3)
inactive: [1] 0.022 | [2] -0.008 | [3] 0.012 | [4] -0.029 | [5] -0.029

PI4KB (UniProt Q9UBF8)
inactive: [1] 0.022 | [2] -0.006 | [3] -0.019 | [4] -0.005 | [5] 0.002

PHYKPL (UniProt Q8IUZ5)
inactive: [1] -0.005 | [2] 0.029 | [3] -0.093 | [4] 0.107 | [5] 0.057

PKN1 isoform 2 (UniProt Q16512)
inactive: [1] -0.003 | [2] 0.017 | [3] 0.023 | [4] 0.029 | [5] 0.022

PKNOX1 (UniProt P55347)
inactive: [1] 0.109 | [2] 0.115 | [3] 0.044 | [4] -0.002 | [5] -0.002

PLEKHF2 (UniProt Q9H8W4)
inactive: [1] 0.045 | [2] 0.005 | [3] 0.032 | [4] -0.113 | [5] -0.1

PHF6 (UniProt Q8IWS0)
inactive: [1] -0.018 | [2] -0.034 | [3] -0.013 | [4] 0.033 | [5] 0.048
